According to the supplement of paper PMC8612539:
In brackets after ≈: the same amount, converted by molar mass. The source gives many values for each of these; only a part stands here.

System: Escherichia coli
Assay: minimum inhibitory concentration (MIC)
Method: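 Broth microdilution MIC (Sensititre BOPO7F bovine plate, CLSI methods) of 19 antimicrobials against field isolates of P. multocida, M. haemolytica, H. somni (deep nasopharyngeal swabs) and E. coli, Enterococcus spp. (rectal swabs) from weaned dairy heifers. Incubation 16-24 h at 35 C. MIC is the lowest concentration preventing visible growth. Values with <= or > lie at the tested range limits. Trimethoprim-sulfamethoxazole is given as the trimethoprim component of a 1:19 mixture.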

CCCNC[C@]1(O)[C@H](C)O[C@@H](O[C@H]2[C@H](C)[C@@H](O[C@@H]3O[C@H](C)C[C@H](N(C)C)[C@H]3O)[C@](C)(O)C[C@@H](C)CN[C@H](C)[C@@H](O)[C@](C)(O)[C@@H](CC)OC(=O)[C@@H]2C)C[C@@]1(C)OC [Tulathromycin]
Settings | minimum inhibitory concentration [mg/L]
isolate (source animal id): 1 | ≤ 8
isolate (source animal id): 2 | ≤ 8
isolate (source animal id): 3 | ≤ 8
isolate (source animal id): 4 | ≤ 8
isolate (source animal id): 5 | ≤ 8
isolate (source animal id): 6 | ≤ 8
isolate (source animal id): 7 | ≤ 8
isolate (source animal id): 17 | ≤ 8
isolate (source animal id): 18 | ≤ 8
isolate (source animal id): 19 | ≤ 8
isolate (source animal id): 20 | ≤ 8
isolate (source animal id): 21 | 16 (≈ 19.8 µM)
isolate (source animal id): 22 | ≤ 8
isolate (source animal id): 23 | 16 (≈ 19.8 µM)
isolate (source animal id): 24 | 16 (≈ 19.8 µM)
isolate (source animal id): 25 | ≤ 8
isolate (source animal id): 26 | ≤ 8
isolate (source animal id): 27 | ≤ 8
isolate (source animal id): 28 | ≤ 8
isolate (source animal id): 29 | ≤ 8
isolate (source animal id): 30 | ≤ 8
isolate (source animal id): 31 | ≤ 8
isolate (source animal id): 32 | ≤ 8
isolate (source animal id): 33 | ≤ 8
isolate (source animal id): 34 | ≤ 8
isolate (source animal id): 35 | ≤ 8
isolate (source animal id): 36 | ≤ 8
isolate (source animal id): 37 | ≤ 8
isolate (source animal id): 38 | 16 (≈ 19.8 µM)
isolate (source animal id): 39 | ≤ 8
isolate (source animal id): 40 | ≤ 8
isolate (source animal id): 41 | ≤ 8
isolate (source animal id): 42 | ≤ 8
isolate (source animal id): 43 | ≤ 8
isolate (source animal id): 44 | ≤ 8
isolate (source animal id): 45 | ≤ 8
isolate (source animal id): 46 | ≤ 8
isolate (source animal id): 47 | ≤ 8
isolate (source animal id): 48 | ≤ 8
isolate (source animal id): 49 | ≤ 8
isolate (source animal id): 50 | ≤ 8
isolate (source animal id): 51 | ≤ 8
isolate (source animal id): 52 | ≤ 8
isolate (source animal id): 53 | ≤ 8
isolate (source animal id): 54 | ≤ 8
isolate (source animal id): 55 | ≤ 8
isolate (source animal id): 56 | 16 (≈ 19.8 µM)
isolate (source animal id): 57 | ≤ 8
isolate (source animal id): 58 | 16 (≈ 19.8 µM)
isolate (source animal id): 59 | ≤ 8
isolate (source animal id): 60 | ≤ 8
isolate (source animal id): 61 | ≤ 8
isolate (source animal id): 62 | 16 (≈ 19.8 µM)
isolate (source animal id): 63 | 16 (≈ 19.8 µM)
isolate (source animal id): 64 | 16 (≈ 19.8 µM)
isolate (source animal id): 65 | 16 (≈ 19.8 µM)
isolate (source animal id): 66 | 16 (≈ 19.8 µM)
isolate (source animal id): 67 | ≤ 8
isolate (source animal id): 68 | ≤ 8
isolate (source animal id): 69 | 16 (≈ 19.8 µM)
isolate (source animal id): 70 | 16 (≈ 19.8 µM)
isolate (source animal id): 71 | 16 (≈ 19.8 µM)
isolate (source animal id): 72 | ≤ 8
isolate (source animal id): 73 | 16 (≈ 19.8 µM)
isolate (source animal id): 74 | ≤ 8
isolate (source animal id): 75 | ≤ 8
isolate (source animal id): 76 | ≤ 8
isolate (source animal id): 77 | ≤ 8
isolate (source animal id): 78 | ≤ 8
isolate (source animal id): 79 | ≤ 8
isolate (source animal id): 80 | ≤ 8
isolate (source animal id): 81 | ≤ 8
isolate (source animal id): 82 | ≤ 8
isolate (source animal id): 83 | ≤ 8
isolate (source animal id): 84 | ≤ 8
isolate (source animal id): 85 | ≤ 8
isolate (source animal id): 86 | 16 (≈ 19.8 µM)
isolate (source animal id): 87 | ≤ 8
isolate (source animal id): 88 | ≤ 8
isolate (source animal id): 89 | ≤ 8
isolate (source animal id): 90 | 16 (≈ 19.8 µM)
isolate (source animal id): 91 | ≤ 8
isolate (source animal id): 92 | ≤ 8
isolate (source animal id): 93 | ≤ 8
isolate (source animal id): 94 | 16 (≈ 19.8 µM)
isolate (source animal id): 95 | ≤ 8
isolate (source animal id): 96 | ≤ 8
isolate (source animal id): 97 | ≤ 8
isolate (source animal id): 189 | ≤ 8
isolate (source animal id): 190 | ≤ 8
isolate (source animal id): 191 | ≤ 8
isolate (source animal id): 192 | ≤ 8
isolate (source animal id): 193 | ≤ 8
isolate (source animal id): 194 | ≤ 8
isolate (source animal id): 195 | ≤ 8
isolate (source animal id): 196 | ≤ 8
isolate (source animal id): 197 | 16 (≈ 19.8 µM)
isolate (source animal id): 198 | ≤ 8
isolate (source animal id): 199 | ≤ 8
isolate (source animal id): 200 | ≤ 8
isolate (source animal id): 201 | ≤ 8
isolate (source animal id): 202 | ≤ 8
isolate (source animal id): 203 | 16 (≈ 19.8 µM)
isolate (source animal id): 204 | ≤ 8
isolate (source animal id): 205 | 16 (≈ 19.8 µM)
isolate (source animal id): 206 | ≤ 8
isolate (source animal id): 207 | ≤ 8
isolate (source animal id): 208 | ≤ 8
isolate (source animal id): 209 | 16 (≈ 19.8 µM)
isolate (source animal id): 210 | ≤ 8
isolate (source animal id): 211 | ≤ 8
isolate (source animal id): 212 | ≤ 8
isolate (source animal id): 213 | 16 (≈ 19.8 µM)
isolate (source animal id): 214 | ≤ 8
isolate (source animal id): 215 | ≤ 8
isolate (source animal id): 216 | ≤ 8
isolate (source animal id): 217 | ≤ 8
isolate (source animal id): 218 | ≤ 8
isolate (source animal id): 219 | ≤ 8
isolate (source animal id): 220 | ≤ 8
isolate (source animal id): 221 | 16 (≈ 19.8 µM)
isolate (source animal id): 222 | ≤ 8
isolate (source animal id): 223 | ≤ 8
isolate (source animal id): 224 | 16 (≈ 19.8 µM)
isolate (source animal id): 225 | ≤ 8
isolate (source animal id): 226 | ≤ 8
isolate (source animal id): 227 | ≤ 8
isolate (source animal id): 228 | ≤ 8
isolate (source animal id): 229 | 16 (≈ 19.8 µM)
isolate (source animal id): 230 | ≤ 8
isolate (source animal id): 231 | ≤ 8
isolate (source animal id): 232 | 16 (≈ 19.8 µM)
isolate (source animal id): 233 | ≤ 8
isolate (source animal id): 234 | 16 (≈ 19.8 µM)
isolate (source animal id): 235 | ≤ 8
isolate (source animal id): 236 | 16 (≈ 19.8 µM)
isolate (source animal id): 237 | ≤ 8
isolate (source animal id): 238 | ≤ 8
isolate (source animal id): 239 | ≤ 8
isolate (source animal id): 240 | ≤ 8
isolate (source animal id): 241 | ≤ 8
isolate (source animal id): 242 | ≤ 8
isolate (source animal id): 243 | ≤ 8
isolate (source animal id): 244 | 16 (≈ 19.8 µM)
isolate (source animal id): 245 | ≤ 8
isolate (source animal id): 246 | ≤ 8
isolate (source animal id): 247 | ≤ 8
isolate (source animal id): 248 | ≤ 8
isolate (source animal id): 249 | ≤ 8
isolate (source animal id): 250 | ≤ 8
isolate (source animal id): 251 | ≤ 8
isolate (source animal id): 252 | 16 (≈ 19.8 µM)
isolate (source animal id): 253 | ≤ 8
isolate (source animal id): 254 | ≤ 8
isolate (source animal id): 255 | ≤ 8
isolate (source animal id): 256 | ≤ 8
isolate (source animal id): 257 | ≤ 8
isolate (source animal id): 258 | 16 (≈ 19.8 µM)
isolate (source animal id): 259 | ≤ 8
isolate (source animal id): 260 | ≤ 8
isolate (source animal id): 261 | 16 (≈ 19.8 µM)
isolate (source animal id): 262 | ≤ 8
isolate (source animal id): 263 | 16 (≈ 19.8 µM)
isolate (source animal id): 264 | 16 (≈ 19.8 µM)
isolate (source animal id): 265 | ≤ 8
isolate (source animal id): 266 | ≤ 8
isolate (source animal id): 267 | ≤ 8
isolate (source animal id): 268 | ≤ 8
isolate (source animal id): 269 | 16 (≈ 19.8 µM)
isolate (source animal id): 270 | 16 (≈ 19.8 µM)
isolate (source animal id): 271 | ≤ 8
isolate (source animal id): 272 | ≤ 8
isolate (source animal id): 273 | ≤ 8
isolate (source animal id): 274 | 16 (≈ 19.8 µM)
isolate (source animal id): 275 | ≤ 8
isolate (source animal id): 276 | ≤ 8
isolate (source animal id): 277 | 16 (≈ 19.8 µM)
isolate (source animal id): 278 | ≤ 8
isolate (source animal id): 279 | ≤ 8
isolate (source animal id): 280 | ≤ 8
isolate (source animal id): 281 | ≤ 8
isolate (source animal id): 282 | ≤ 8
isolate (source animal id): 283 | 16 (≈ 19.8 µM)
isolate (source animal id): 284 | ≤ 8
isolate (source animal id): 285 | ≤ 8
isolate (source animal id): 286 | 16 (≈ 19.8 µM)
isolate (source animal id): 287 | ≤ 8
isolate (source animal id): 288 | 16 (≈ 19.8 µM)
isolate (source animal id): 289 | ≤ 8
isolate (source animal id): 290 | ≤ 8
isolate (source animal id): 291 | ≤ 8
isolate (source animal id): 292 | ≤ 8
isolate (source animal id): 293 | ≤ 8
isolate (source animal id): 294 | ≤ 8
isolate (source animal id): 295 | ≤ 8
isolate (source animal id): 296 | ≤ 8
isolate (source animal id): 297 | ≤ 8
isolate (source animal id): 298 | ≤ 8
isolate (source animal id): 299 | ≤ 8
isolate (source animal id): 300 | ≤ 8
isolate (source animal id): 301 | ≤ 8
isolate (source animal id): 302 | ≤ 8
isolate (source animal id): 303 | ≤ 8
isolate (source animal id): 304 | ≤ 8
isolate (source animal id): 305 | ≤ 8
isolate (source animal id): 306 | ≤ 8
isolate (source animal id): 307 | ≤ 8
isolate (source animal id): 308 | ≤ 8
isolate (source animal id): 309 | ≤ 8
isolate (source animal id): 310 | ≤ 8
isolate (source animal id): 311 | ≤ 8
isolate (source animal id): 312 | ≤ 8
isolate (source animal id): 313 | ≤ 8
isolate (source animal id): 314 | ≤ 8
isolate (source animal id): 315 | 16 (≈ 19.8 µM)
isolate (source animal id): 316 | 16 (≈ 19.8 µM)
isolate (source animal id): 317 | ≤ 8
isolate (source animal id): 318 | ≤ 8
isolate (source animal id): 319 | ≤ 8
isolate (source animal id): 320 | ≤ 8
isolate (source animal id): 321 | 16 (≈ 19.8 µM)
isolate (source animal id): 322 | ≤ 8
isolate (source animal id): 323 | 16 (≈ 19.8 µM)
isolate (source animal id): 324 | ≤ 8
isolate (source animal id): 325 | 16 (≈ 19.8 µM)
isolate (source animal id): 326 | ≤ 8
isolate (source animal id): 327 | ≤ 8
isolate (source animal id): 328 | ≤ 8
isolate (source animal id): 329 | ≤ 8
isolate (source animal id): 330 | ≤ 8
isolate (source animal id): 331 | ≤ 8
isolate (source animal id): 332 | 16 (≈ 19.8 µM)
isolate (source animal id): 333 | ≤ 8
isolate (source animal id): 334 | ≤ 8
isolate (source animal id): 335 | ≤ 8
isolate (source animal id): 336 | 16 (≈ 19.8 µM)
isolate (source animal id): 337 | ≤ 8
isolate (source animal id): 338 | ≤ 8
isolate (source animal id): 339 | ≤ 8
isolate (source animal id): 340 | 32 (≈ 39.7 µM)
isolate (source animal id): 341 | ≤ 8
